The values that follow come from paper PMC9091226.

For this experiment, the target named is T1, HiBiT-tagged HK2 (hexokinase 2), endogenously tagged in HL60 cells (human (endogenous in HL60)) (UniProt P52789).
T1 sequence: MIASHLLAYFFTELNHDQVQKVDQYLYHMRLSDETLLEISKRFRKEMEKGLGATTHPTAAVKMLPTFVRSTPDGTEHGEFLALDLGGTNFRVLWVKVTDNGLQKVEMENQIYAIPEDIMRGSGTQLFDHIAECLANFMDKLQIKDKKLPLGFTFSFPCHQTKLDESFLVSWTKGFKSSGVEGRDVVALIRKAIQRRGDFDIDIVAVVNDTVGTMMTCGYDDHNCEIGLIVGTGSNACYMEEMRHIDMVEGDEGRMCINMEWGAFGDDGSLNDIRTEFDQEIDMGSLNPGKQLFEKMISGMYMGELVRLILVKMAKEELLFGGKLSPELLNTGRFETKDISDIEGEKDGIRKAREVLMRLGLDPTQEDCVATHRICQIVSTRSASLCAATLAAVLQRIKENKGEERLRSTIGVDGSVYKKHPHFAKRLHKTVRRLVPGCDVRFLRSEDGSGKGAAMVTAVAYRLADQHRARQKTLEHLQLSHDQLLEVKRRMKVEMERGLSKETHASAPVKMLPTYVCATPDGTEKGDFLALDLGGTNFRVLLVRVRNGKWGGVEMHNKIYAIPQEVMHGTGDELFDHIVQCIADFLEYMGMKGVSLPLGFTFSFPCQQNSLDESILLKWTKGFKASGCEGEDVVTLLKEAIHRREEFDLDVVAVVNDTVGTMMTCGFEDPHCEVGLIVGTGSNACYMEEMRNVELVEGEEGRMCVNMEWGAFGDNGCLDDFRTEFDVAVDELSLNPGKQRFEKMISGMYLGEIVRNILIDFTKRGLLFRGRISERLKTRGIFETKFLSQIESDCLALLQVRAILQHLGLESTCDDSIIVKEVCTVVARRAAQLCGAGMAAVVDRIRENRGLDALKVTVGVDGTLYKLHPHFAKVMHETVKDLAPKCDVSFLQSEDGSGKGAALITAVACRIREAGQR
Briefly: proximity ligation; Duolink in situ PLA on fixed, permeabilised HL60 cells with endogenously HiBiT-tagged HK2 or HK3; mouse anti-HiBiT combined with rabbit anti-VDAC or rabbit anti-BIM; with and without ATRA treatment; confocal imaging. Background: With HiBiT, luminescence reflects the tagged protein that the partner subunit can reach.

Results are given in words; binding and its absence hold for the method and conditions named. In cells and extracts the contact can be indirect. Binding calls can cover weak binding; strength is not graded here. Tags and fused reporters may be left off the sequences shown.

Turning to “voltage-dependent anion channel (VDAC) (human (endogenous in HL60))”, the binding result was “binds”.
